This note sets out measurements from PubChem BioAssay AID1347423 (Functional Genomics Laboratory (NCATS/FGL), 2020).

The campaign covered roughly 52,000 sequences. About 210 (0.4%) were called active.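 Rule for the calls: active = gene whose silencing raises cell survival under the drug, median off-target-corrected z-score across its silencing RNAs 2 or more; inactive = the rest.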 The list shows a part of the results.

A short description of this assay: Resistance to Poly (ADP-Ribose) Polymerase inhibitor: Gene Identification via Genome-wide siRNA Screen. Particulars: mouse BRCA2 R2336H ES cells, olaparib, CellTiter-Glo viability; active compounds read high. The method in brief: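 Genome-wide siRNA screen (3 siRNAs/gene, 20 nM) in mouse ES cells carrying hypomorphic BRCA2 R2336H; olaparib 500 nM added 48 h post-transfection, CellTiter-Glo viability 72 h later. Normalized to plate-median negative control; MAD z-scores, gene median, seed-adjusted.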
In the case of GGCUGGAAAGAGACUUUCCTT against Sah, the z-score was inactive: -0.611.
In the case of GGUAUUCUUUGAUAAGAUCTT against Ephb1, the z-score was inactive: 0.73.
Next, “GGUUAUUGAUUUGGUGAAGTT against 4930550L24Rik”: inactive: -0.903; GGUUCUUUUUGACGGUGGUTT against Rpl14: inactive: -3.22; “GGAUCAGCAACAGUCUCCATT against 1700029M20Rik”: inactive: -0.0631.
For the sequence GCUACUCUCGCCUGUUACATT against Wdr40a, the z-score is inactive: 0.351.
Next, CCCACAGGUUCAAGAACCGTT against Gm608: inactive: 0.0445.
For CCUCUGCUACUCUUAUUGUTT against Ttn the value was inactive: -0.38.
Next, GGAGUGAUGUCCAUACUGGTT against Leap2: inactive: -0.44.
GGCUAAAGCGAAAAAAAAGTT against Msl31: the z-score is inactive: -0.347.
Turning to GGAGUUUGUGCAGUUUGUGTT against Nfix, the z-score was inactive: -0.275.
For “GGGAGAGGAUCAGGUAAACTT against 1500003O03Rik” the value was inactive: -0.0913; for CCCUCCGUGUUUUUAAGAUTT against Tbl2, inactive: -0.15; for GGGCUUCUGAAGAAGAUGATT against Cdc25b, inactive: -1.24.
For GGUGAUGUGCUCCGGUUUATT against Mrs2l the value was inactive: -0.00496; for GGCAAUUAAUUGACAGUUATT against Myf5, inactive: 0.188; for GCAAGGAGUUUAUGUGAGUTT against Olfr170, inactive: -0.306.
For GGAACAAAGAGGUUAAAGGTT against Olfr1448 the value was inactive: 0.0539; for “GCCCAUCACAAAUAAACAATT against B230340J04Rik”, inactive: 1.26; for “CCACCACAACUAAGUCAGATT against 2310015N07Rik”, inactive: 1.08.
Take CCCUGUGAAAUAUUGAUAATT against V1rc15: the z-score was inactive: -1.26.
For “GGCACUGAAGGAGAACCUGTT against 4732416F18” the value was inactive: -0.837; for GGAAGUUCGUGUGAAAGUUTT against Uhrf2, inactive: -1.45; for “GGUGGAGUUUGUGCAGAAGTT against 2310026J01Rik”, inactive: 0.572.
Next, “GGUGCAGAACUAAUUCCACTT against 9130020L07Rik”: inactive: -0.454.
Regarding GGGAGAGGACGACAUUUACTT against Otx2, the z-score was inactive: -0.207.
For GGUUUUUAUCGACACUAUCTT against Chrna1 the value was inactive: 0.315; for GGUGGUUCCCAAUUCACCUTT against Htra3, inactive: 0.125; for CCCUUUGUAGUUACUAAACTT against Zwint, inactive: 0.291.
For GGUCUGAAGACAUCCUAGUTT against Pabpc4 the value was inactive: -0.217.
On to CGGGAUUCUUCUCCUUGAATT against Dnalc4, for which the z-score was inactive: -1.28.
For GCAAGCUGAGCAUUGAUGATT against Csk, the z-score was inactive: 0.841.
For GGAGUACGUGCUAGAUAAGTT against Tram1l1 the value was inactive: -1.49; for CCGUACAUCGAGAAAUACATT against Hal, inactive: -0.297; for GCAGUUUUCGCUCUGGUCATT against Cxcl7, inactive: -2.36.
Next, GCGGAUUUAGUGGCUGGCUTT against Opn5: inactive: -2.04; GCAUCACUGUCUAAACUUGTT against Pgk2: inactive: 0.482.
With GCAUAUUAGACACAAGAUATT against Clecsf6, the z-score was inactive: 0.176.
As for GGAGCCAAGAACUUUUCAGTT against AI467484, the z-score was inactive: -0.188.
For GUUGACUGUACCCGAUACATT against Mxd3 the value was inactive: -0.163; for GGUAAUCACAUCCCAGGUGTT against Olfr370, inactive: -0.92.
On to GUGAUUGCCAAGAAGUUCUTT against Olfr1033, for which the z-score was inactive: -0.0496.
As for GGAAAAGAGCAAACUUAUUTT against Shc3, the z-score is inactive: 0.757.
Next, GCUCUACGAUGCAGUUUUUTT against Trp53i11: inactive: 0.795.
For “GCAUCUAUGGUGUUUCCUGTT against 9230106D20Rik” the value was inactive: 0.792.
As to CGGACACACAGUUGAUCCGTT against Cct6b, the z-score is inactive: -0.174.
For GGAUAUCAUCAUGUCUUUCTT against Otop1 the value was inactive: 0.578; for GGUGGCCCAGUCUAAAGAATT against R74862, inactive: -0.481.
For GGAAUUCAGUGCCUUAAAATT against Pgf the value was inactive: -0.415; for GGAGUUCGCACAGAAAUUCTT against Dhdh, inactive: 2.35.
Next, GGACAGGUGAAGAUAAGUATT against Mug2: inactive: -0.264.
Take “GAGAUGCCAUGACAAUGGGTT against 4931422A03Rik”: the z-score was inactive: -1.98.
Next, GGAGUCUCUGUCAUGUGAUTT against Tlr2: inactive: -1.27; GGUUGUGAACAGUCCACCCTT against Ski: inactive: 0.143; “GGAAGGACUAUUUUCUUUCTT against 2310001H13Rik”: inactive: 0.265.
For “GGCUUUAUCAGAUCCAACCTT against B130017P16Rik” the value was inactive: 3.06; for CCAAAUAAUUUCAGGGAAUTT against Vamp1, inactive: 0.148.
Turning to GGCUGGCUGGAAAAAAGGUTT against Zfp336, the z-score was inactive: -1.03.
Next, “CGUGGUUCCCAUCAGAAAGTT against 2410116G06Rik”: inactive: -1.15; GGCUCUUCCGAGAACAUCCTT against Kcne4: inactive: 0.507; “GGCAGAAUGGCUAUCUAGATT against 1810074P20Rik”: inactive: 0.726.
For GGGACAUGGACAAUAAACCTT against Wnt10a the value was inactive: 1.46; for GGUGCAGACCUCUGACAAATT against Pdlim7, inactive: 0.291; for GGUCUUUGAAUGGAACAAUTT against Aldh7a1, inactive: 0.00314.
Next, GGCAAUUUCCUUAUUAGAUTT against Nol5: inactive: 1.73; GGAUGUGCUAAUGAGGCCATT against Tjp3: inactive: -0.389.
